These are yes or no findings as the source states them, for the method shown. Binding seen in cells or lysates may run through a third protein. Here binding means that the protein was enriched with, or labelled near, the bait; the list need not be complete. Where a sequence is shown, tags or fusion partners need not be part of it.
B1: sle (protein, UniProt Q8INM3 1-1420)
chain: MVVTRARTRRLSLLETDSRPSTPQLDTVAELGTASPRATRRTRLNSSTLDVRTPTRTRRASLARGETPEPTTPSSVKRTARTPAKNTRSVRQQLTLTEEPEENEVKQEKPSPSPSPVPKEGKGKAQRKPSVSPSPGRTLTPNQQSDEKRVTRSMSQTPPMPTRSSSNTPRDLNDSPKVEQKAKPNIKTTPKVAVRLEKLSMDKFSGKKMEKAKPLIVPDELKDNGVVEEQNKSITEAHSQAPETHESAQPDKDAGKQSFLKSFTTLSKIQGSSKALHPDESADTITKITPTSTSKKIEENMDDVFETLRVESPKVERKIETLQKVHTVGTPEIKEKDEPVGVDNEIKTKTETPQKIEPPIIESKVETQQLIDHPQIEKKRDTPQNVSTVDLMDTSPEKDESMEDQEFLDAEDSIVQLEPQTDEPVEKPKELEFVDLDDDEPVFPSEAPKYVEDSKEVHPDDSMDDDKQNKIDVTEVIHLPSIRARAVRSPAVEQKKSVDFNNDTDDLEVEKKRFPKTPGREKVPVCRILTPKPETPLKLALQKGRNSSTPILKDQERGLSNSTEELHPAPPQIDAIKPFDELESKNAKDEMVEQSPMSKQKAENKILARLESFEEDVEDHGNEEENEEEHEEDKSISEFVDLEAEDAGKDYMSGDSMDSSLRREMEENEIPIDGESVGSKDTEESTPEESDGDDSFIVSDNEDEEDLGQLCYSSGEDEIEDAEESEQAERSSVKRRRIIIASPSDEEHDGKVQSNDDSSENKTEKPKNQSNCSSNASKLSEAAQLLNVSEEKSSISETELERSRQVALNELNKSERFNKTETQLDISVMEVDSSDHDEEEKTEKVGAKNNRSLYEIVDSDDGEEQDQDQSDADKPAESENHSEIKKSTSFMDQMSGAKGNKSVYEIMDSYETEDPKEAGKNEESDKDKPAENGKSDKDKQAETEMSDEDKPSEIKSPSTIKKSIISTADEEALLAELASSDLSHLEKMFNPLQKSRRQSLHVPSPELAAKNPKLRRRSERVEVGNDFCPSQSFVDMVAEKKRQKNKRKRLSKSLSGAPEDLEEMEIKHERKRLKSSHGASTDSMEEDNENETMTVAEEHHSDGEVSNGEVPIEEKPTTSSEKPSASELPEEEETVAVEELLMEKPKTCDSPRSEERPTEIVTSKPKGMAPVKVEKTAEYYLAYCHNLLEAANEAKLKEKKEHLASGAKQKKPKRIAAQAPSKLLGTIGSESETNTAKSSKQPPALKKDVKRLQAARQAVSHAVNLLAPPKATEAEPRTLSRKLSPQPPVVDKKSAKQKKGKKKQKPQEASPLKSSDEENHGHRIRTNAGYVTVVDEPPTKVPKIELIKTSSGMVRVEPCTPKQKYFRELPPTPKMHGFREEPGPSGMSRKRAKHAAPKVEHNSAKQAALRFKEQIFARRS
B2: SMC2 (protein, UniProt Q7KK96 1-1179)
chain: MYVKKLVLDGFKSYGRRTEIEGFDPEFTAITGLNGSGKSNILDSICFVLGISNLQNVRASALQDLVYKNGQAGITKATVTIVFDNTNPAQCPQGYEKCREISVTRQVVVGGKNKFLINGKLVQNKKVQDFFCSIQLNVNNPNFLIMQGKIQQVLNMKPKEVLSMVEEAAGTSQYKTKRDATKTLIEKKETKVRETKVLLDEEVLPKLVKLRQERSAYQEYQKICRDIDFLIRIHISAKYLKQCETLKTVEANEHKIEDRIANCKATHAKNLAEVESIENSVKEMQQQIDAEMGGSIKNLETQLSAKRALEATATGSLKAAQGTIQQDEKKIRMASKNIEDDERALAKKEADMAKVQGEFESLKEADARDSKAYEDAQKKLEAVSQGLSTNENGEASTLQEQLIVAKEQFSEAQTTIKTSEIELRHTRGVLKQREGETQTNDAAYVKDKKLHDQLVVEIKNLERQLQSLDYEGGHFEKLKQRRNDLHMRKRDLKRELDRCNASRYDLQYQDPEPNFDRRKVRGLVGKLFQVKDMQNSMALVQTAGGSLYSYVTDDDVTSKKILQRGNLQRRVTLIPINKIQSGSLNRNVVEYAQNKVGAENVQWAMSLIDYDRYYEPVMKFCFGGTLICKDLIVAKQISYDPRINCRSVTLEGDVVDPHGTVSGGAAPKGANVLEELHAIKQIEKEYREIDSEIAQVEKQIASIENQALAFNKMKENLDLRQHELTMCENRLAQTTFQQNQAEIEEMRERVKTLEQQIIDSREKQKTSQAKIVDIEAKLADAKGYRERELNAATNEIKVTKQRAEKSRANWKKREQEFETLQLEITELQKSIETAKKQHQEMIDNLEKFKAELDALKVNSSSAASEVTELEQAIKEQKDKLRDQNKEMRNQLVKKEKMLKENQEIELEVKKKENEQKKISSDAKEAKKRMEALEAKYPWIPEEKNCFGMKNTRYDYSKEDPHEAGNKLAKMQEKKDKMERTLNMNAIMVLDREEENFKETERRRNIVAMDKEKIKKIIVKMDEEEQDQLNKAATEVNTNFSGIFSSLLPGAEAKLNPVHTNGCLTGLEIKVGFNGIWKESLGELSGGQKSLVALSLVLAMLKFSPAPLYILDEVDAALDMSHTQNIGSMLKQHFTNSQFLIVSLKDGLFNHANVLFRTLFEEGVSTITRQVSRQATTNKR
B3: smid (protein, UniProt P91638 1-943)
chain: MKKAKPLLHDHLITIRVKKYLEEHIGETYLDVKQMTRELMQKYPEYSRRKFGPFRQLVHQAFSIISESYNLDKVSSSEEDCVSEDSEPPPTNSVMNNMMNSLYSQPRKPLAPKPISEPIDISSGDENEDDSNTKTTNGDGVAAAAAPPPPTPAVQGSALKRLMEEVPEIAVAAKKAKPNTIHVSSSEAIQKLHQVVGNRAKNLSEDAVPRSKDHRNVPGLYQQLHQNQSRDRLRKFKRDLEVQHPTESFRDIGGMDSTLKELCEMLIHIKSPEFYFQLGLLPSRGLLLHGPPGCGKTFLARAISGQLKMPLMEIPATELIGGISGESEERIREVFDQAIGYSPCVLFIDEIDAIGGNRQWASKDMERRIVSQLISSLDNLKANEFGQSVVVIAATTRPDVLDPGLRRIGRFDHEIAIHIPSRKERREILRIQCEGLSVDPKLNYDKIAELTPGYVGADLMALVSRAASVAVKRRSMKKFRELHAASEKNMTTVTLDDDEPSEDAGETPVPDSKGEETAKDAEAEQKVDGDKETSAKDKSEGDSPNIETPKKATNGNSSIKSPQKTPKKSAEKPTDAAMDVDNVAPEEPKKAVEQEVDSSSSNDEYYEPTLAELTNFLDNPPEEFADPNFCLTLIDFVDAIKVMQPSAKREGFITVPDTTWDDIGALEKIREELKLAVLAPVKYPEMLERLGLTAPSGVLLCGPPGCGKTLLAKAIANEAGINFISVKGPELMNMYVGESERAVRACFQRARNSAPCVIFFDEFDSLCPKRSDGGDGNNSGTRIVNQLLTEMDGVEERKGVYILAATNRPDIIDPAILRPGRLDTILYVGFPEQSERTEILKATTKNGKRPVLADDVDLDEIAAQTEGYTGADLAGLVKQASMFSLRQSLNNGDTNLDDLCVRSQHFQEALQQLRPSVNEQDRKIYDKLRLKYAAPRVPTLNDK
B4: RanBPM (protein, UniProt Q4Z8K6 1-962)
chain: MENVEEAPPLSSESNSNSNNSSASSSSHQLSQSGAMGAEIAPSTSRSHSHSPTPSPPVPASSHDQPHPDHPSPPLNASETEARENSPHDHSPTPTFHQTAPPPTTSSTAPQRDEREQQQQQEAPPLQQDQQENSPAQDQELHPLLDQQNQEYPAVHQDQQAEQNQELHHIEGLIRHRESQNPEEHPPQASLENRETLGREDTNQEPDEPQVRDPEIEPEAEPPPPLLLEDLDEQDSGSQDLNEQQPPLIIDANAIAETIDANAVERIDDYEDDDEEVDEEEEVVEDRVDRAGEVASVSGAQRLHSVAVLPRYSSASRAPRSSNNNNNNISNHNNNNNNSNSNSLSRRTRHFYSNNGSHFSNDMFPSHNPRSSTQTSSPRVGGRRHHSTPAASSNSPQHQGVDPLRLLYPNVNESETPLPRCWSPHDKCLSIGLSQNNLRVTYKGVGKQHSDAASVRTAYPIPSSCGLYYFEVRIISKGRNGYMGIGLTAQQFRMNRLPGWDKQSYGYHGDDGNSFSSSGNGQTYGPTFTTGDVIGCCVNFVNNTCFYTKNGVDLGIAFRDLPTKLYPTVGLQTPGEEVDANFGQEPFKFDKIVDMMKEMRSNVLRKIDRYPHLLETPENLMNRLVSTYLVHNAFSKTAEAFNGYTNQTFNEDLASIKTRQKIIKLILTGKMSQAIEHTLRSFPGLLENNKNLWFALKCRQFIEMINGADIENVNNKVTATTQTMPTNQTSVIQSTKTFKHSKSGSGNGNVNINQTQQQNNTAIPAVIKPQGGDRPDIKNMLVDDNSNKCVEHDSNSMDVEMEPCQSHSNGGDSSSNGNASAVRNSLDAIDEEMDVDVSPSSRNCGRVIEKILEFGKELSSMGQQLEKENLMTEEERQMLEDAFSLIAYSNPWSSPLGWLLCPSRRESVSTTLNSAILESLNFERRPPLEYLVAHASELIKVIGQHSLGEDAFITIDDVFPQN

Target: T1, Usp fused to APEX2 through a 25 nm GS linker, marked with 3xFLAG (Drosophila melanogaster) (UniProt P20153)
T1 sequence: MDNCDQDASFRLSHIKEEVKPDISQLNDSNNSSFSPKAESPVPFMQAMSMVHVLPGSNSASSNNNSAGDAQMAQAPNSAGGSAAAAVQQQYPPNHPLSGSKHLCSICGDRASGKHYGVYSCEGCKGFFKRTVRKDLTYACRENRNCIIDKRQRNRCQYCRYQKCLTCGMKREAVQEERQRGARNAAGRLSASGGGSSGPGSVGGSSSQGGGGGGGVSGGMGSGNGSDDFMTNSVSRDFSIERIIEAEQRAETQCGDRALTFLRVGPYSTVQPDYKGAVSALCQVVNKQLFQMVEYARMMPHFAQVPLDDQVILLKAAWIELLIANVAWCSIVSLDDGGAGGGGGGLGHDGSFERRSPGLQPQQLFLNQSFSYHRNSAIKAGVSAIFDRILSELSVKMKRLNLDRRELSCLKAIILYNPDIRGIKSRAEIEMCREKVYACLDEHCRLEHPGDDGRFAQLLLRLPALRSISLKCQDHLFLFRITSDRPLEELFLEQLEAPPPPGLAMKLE
Assay: proximity labelling; APEX2 fused to EcR or Usp, stably expressed in S2 cells; 20E or DMSO 1 h, biotin-phenol 30 min, 1 mM H2O2 5 min; nuclear extract, Streptavidin-Agarose precipitation, LC-MS/MS

binding, binds:
B1
B2
B3
B4

Target: T2, EcR (isoform A) fused to APEX2 through a 25 nm GS linker, marked with 3xFLAG (Drosophila melanogaster) (UniProt P34021)
T2 sequence: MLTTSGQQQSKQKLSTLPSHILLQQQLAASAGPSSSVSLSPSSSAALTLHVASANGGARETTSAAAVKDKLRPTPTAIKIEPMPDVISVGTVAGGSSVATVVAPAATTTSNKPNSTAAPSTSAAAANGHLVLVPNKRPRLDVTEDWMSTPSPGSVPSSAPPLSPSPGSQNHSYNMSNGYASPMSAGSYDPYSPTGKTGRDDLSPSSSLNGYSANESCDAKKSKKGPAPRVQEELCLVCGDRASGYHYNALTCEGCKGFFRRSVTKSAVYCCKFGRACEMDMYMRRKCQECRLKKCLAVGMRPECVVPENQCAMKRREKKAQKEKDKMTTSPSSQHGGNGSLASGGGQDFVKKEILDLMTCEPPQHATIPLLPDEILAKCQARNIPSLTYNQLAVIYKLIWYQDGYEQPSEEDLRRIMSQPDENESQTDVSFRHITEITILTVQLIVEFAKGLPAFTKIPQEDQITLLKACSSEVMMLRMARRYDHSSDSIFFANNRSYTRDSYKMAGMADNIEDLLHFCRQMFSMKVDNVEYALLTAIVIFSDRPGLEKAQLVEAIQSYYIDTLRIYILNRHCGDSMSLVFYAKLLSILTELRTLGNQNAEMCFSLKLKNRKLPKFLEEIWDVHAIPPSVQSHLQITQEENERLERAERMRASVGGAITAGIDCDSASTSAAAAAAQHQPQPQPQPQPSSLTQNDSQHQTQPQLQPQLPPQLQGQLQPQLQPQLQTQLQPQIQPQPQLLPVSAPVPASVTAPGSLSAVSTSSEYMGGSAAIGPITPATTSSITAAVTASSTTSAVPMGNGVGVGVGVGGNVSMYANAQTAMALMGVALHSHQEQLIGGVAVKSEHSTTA
Assay: as above

binding, binds:
B1
B2
B3
B4
